Results as given in patent US10464920B2, “Vicinal primary diamines associated with metal and/or free radical chelation motifs, and active against carbonyl and oxidative stress, and use thereof” (UNIVERSITE AMIENS PICARDIE JULES VERNE, priority 2015, dated 2019).
Some entries share one result that the patent states for a list of compounds.

Test: Formation of adducts with MDA, kinetic study by HPLC
Type: physicochemical
Details: compound 10 mM, MDA 20 mM, 37° C., after 1 h
Protocol: The compounds to be tested are incubated at 37° C. in the presence of MGO or of MDA. A kinetic study aiming to report on the formation of adducts with the MGO or MDA is then carried out via HPLC analysis.
The compounds to be tested (30 μmol) are dissolved in PBS (1.5 mL). An aqueous solution (qsp 1.25 mL) of MGO at 40% in water (250 μmol) is then prepared and in parallel, MDA bis-(diOEt)-acetal (250 μmol) is set to react with a solution of HCl 1N (2 eq) in water (qsp 1.25 mL) for 1 h at room temperature. An aqueous solution of NaOH 0.05N is also required to neutralise the reaction medium (5 mL).
The solution of the compound to be tested (625 μL—final concentration in the medium=10 mM) is then set to react with the solution of MGO or of MDA prepared extemporaneously (125 μL—final concentration in the medium=20 mM) in the presence of NaOH 0.05 N (0.5 mL).
The various mixtures are then incubated in the oven at 37° C. for 24 h.
A sampling of each mixture (100 μL) is taken at regular intervals of time (0.25; 0.5; 1; 5 and 24 h) and stored at −20° C. in order to stop the reaction. After dilution in a MeCN/H2O 98:2 mixture at room temperature, the HPLC analysis is carried out on a Shimadzu LCMS-2020 apparatus (UV chromatogram at 190 nm and mass spectrum in positive electrospray ionisation mode (ESI+)) after separation on the Waters Acquity column using a gradient of solvents H2O+HCOOH 0.1%/MeCN+HCOOH 0.1% (98/2 for 2 min, then 55/45 for 2 min and 45/55 for 3 min) with a flow rate of 0.3 mL/min at 40° C. and an injection of volume of 1 (“detection mode: scan, interface voltage: tuning file, DL voltage: 100 V, Q-array DC: 40 V, Q-array RF: 40 V”). A blank is first of all carried out using a solution containing the reaction medium without scavenger. Then, a free scavenger solution at 10 mM is used as a negative control and the carnosine as a reference of the literature. The proportion of adducts formed with the MGO or MDA (generally, tR=4.1 to 6.8 min) is then measured in relation to the quantity of remaining free scavenger (generally, tR=0.8 to 4.6 min) after measurement of the area under the curve of the corresponding peaks on the UV spectrum (measurements taken for a representative sample).

Structure (SMILES) | adducts with the MDA
NCC(N)CCCCNC(=O)c1cc(O)c(O)c(O)c1 (stereo not drawn) [Compound 30b, N-(5,6-diaminohexyl)-3,4,5-trihydroxybenzamide] | > 81%
NCC(N)CCC(=O)NCCCn1cccc(O)c1=O (stereo not drawn) [Compound 37c, 4,5-diamino-N-(3-(3-hydroxy-2-oxopyridin-1(2H)-yl)propyl)pentanamide] | > 81%
NCC(N)CC(=O)N1CCN(C(=O)CCn2cccc(O)c2=O)CC1 (stereo not drawn) [Compound 37d, 1-(3-(4-(3,4-diaminobutanoyl)piperazin-1-yl)-3-oxopropyl)-3-hydroxypyridin-2(1H)-one] | > 81%
NCC(N)CCC(=O)N1CCN(C(=O)CCn2cccc(O)c2=O)CC1 (stereo not drawn) [Compound 37f, 1-(3-(4-(4,5-diaminopentanoyl)piperazin-1-yl)-3-oxopropyl)-3-hydroxypyridin-2(1H)-one] | > 81%
Cc1c(O)c(=O)ccn1CCC(=O)NCCCCC(N)CN (stereo not drawn) [Compound 37i, N-(5,6-diaminohexyl)-3-(3-hydroxy-2-methyl-4-oxopyridin-1(4H)-yl)propanamide] | > 81%
Cc1c(O)c(=O)ccn1CCCNC(=O)CCC(N)CN (stereo not drawn) [Compound 37j, 4,5-diamino-N-(3-(3-hydroxy-2-methyl-4-oxopyridin-1(4H)-yl)propyl)pentanamide] | > 81%
